Results reported in the supplement of paper PMC10849652.
The other results are listed elsewhere or left out.

By UniProt entry, the sequences of proteins in these tests, tags left out. Where a name states a change or a piece, a line headed by the entry shows the natural chain unless it says otherwise.
UniProt P61026: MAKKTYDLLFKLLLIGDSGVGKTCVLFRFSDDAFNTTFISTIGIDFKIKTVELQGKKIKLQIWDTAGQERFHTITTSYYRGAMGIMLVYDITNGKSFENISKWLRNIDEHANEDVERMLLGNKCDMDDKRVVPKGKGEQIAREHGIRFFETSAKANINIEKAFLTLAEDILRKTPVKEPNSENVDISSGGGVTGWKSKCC
UniProt Q9NTZ6: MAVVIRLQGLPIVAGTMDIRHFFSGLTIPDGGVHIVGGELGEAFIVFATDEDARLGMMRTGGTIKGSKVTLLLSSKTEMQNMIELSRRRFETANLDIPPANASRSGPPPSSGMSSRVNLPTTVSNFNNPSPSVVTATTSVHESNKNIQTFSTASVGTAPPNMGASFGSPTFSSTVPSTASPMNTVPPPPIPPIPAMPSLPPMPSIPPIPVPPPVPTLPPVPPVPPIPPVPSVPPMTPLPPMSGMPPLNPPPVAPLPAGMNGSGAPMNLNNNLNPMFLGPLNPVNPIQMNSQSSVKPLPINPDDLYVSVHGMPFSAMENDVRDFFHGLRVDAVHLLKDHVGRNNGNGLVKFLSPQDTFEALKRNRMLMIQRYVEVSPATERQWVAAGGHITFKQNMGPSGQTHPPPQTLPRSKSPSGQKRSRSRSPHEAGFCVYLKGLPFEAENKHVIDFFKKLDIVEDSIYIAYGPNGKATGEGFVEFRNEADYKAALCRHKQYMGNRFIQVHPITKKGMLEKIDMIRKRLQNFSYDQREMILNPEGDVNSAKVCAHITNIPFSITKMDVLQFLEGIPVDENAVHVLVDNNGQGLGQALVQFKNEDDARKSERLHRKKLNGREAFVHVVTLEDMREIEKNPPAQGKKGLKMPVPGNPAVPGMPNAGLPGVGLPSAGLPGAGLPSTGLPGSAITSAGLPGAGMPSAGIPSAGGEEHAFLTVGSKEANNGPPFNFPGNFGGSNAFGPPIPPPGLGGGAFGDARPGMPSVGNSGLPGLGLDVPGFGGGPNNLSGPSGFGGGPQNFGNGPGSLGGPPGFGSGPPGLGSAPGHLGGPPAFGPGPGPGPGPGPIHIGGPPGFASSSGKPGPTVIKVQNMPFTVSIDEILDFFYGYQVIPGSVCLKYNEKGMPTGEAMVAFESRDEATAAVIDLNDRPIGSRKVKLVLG
UniProt P46060: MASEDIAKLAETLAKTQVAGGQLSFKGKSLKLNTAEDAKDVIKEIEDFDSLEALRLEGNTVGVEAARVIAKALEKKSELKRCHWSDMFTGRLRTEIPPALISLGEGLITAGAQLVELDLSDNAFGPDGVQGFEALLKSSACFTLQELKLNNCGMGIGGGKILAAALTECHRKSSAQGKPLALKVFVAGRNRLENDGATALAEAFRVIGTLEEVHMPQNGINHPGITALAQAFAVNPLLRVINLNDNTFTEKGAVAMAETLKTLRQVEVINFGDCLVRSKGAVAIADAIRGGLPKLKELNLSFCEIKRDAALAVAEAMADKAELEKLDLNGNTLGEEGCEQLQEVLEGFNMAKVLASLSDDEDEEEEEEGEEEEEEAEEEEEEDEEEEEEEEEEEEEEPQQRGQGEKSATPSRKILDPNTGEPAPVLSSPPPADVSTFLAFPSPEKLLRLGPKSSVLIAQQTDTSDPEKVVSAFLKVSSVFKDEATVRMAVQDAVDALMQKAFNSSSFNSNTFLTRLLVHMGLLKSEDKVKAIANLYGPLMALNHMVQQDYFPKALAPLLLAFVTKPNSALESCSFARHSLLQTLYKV
UniProt P10114: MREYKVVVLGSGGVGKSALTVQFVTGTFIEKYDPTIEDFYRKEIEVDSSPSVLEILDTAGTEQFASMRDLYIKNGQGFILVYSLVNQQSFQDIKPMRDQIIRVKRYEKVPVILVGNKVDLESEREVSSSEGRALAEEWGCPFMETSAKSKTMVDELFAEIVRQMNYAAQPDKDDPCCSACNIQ
UniProt Q99638: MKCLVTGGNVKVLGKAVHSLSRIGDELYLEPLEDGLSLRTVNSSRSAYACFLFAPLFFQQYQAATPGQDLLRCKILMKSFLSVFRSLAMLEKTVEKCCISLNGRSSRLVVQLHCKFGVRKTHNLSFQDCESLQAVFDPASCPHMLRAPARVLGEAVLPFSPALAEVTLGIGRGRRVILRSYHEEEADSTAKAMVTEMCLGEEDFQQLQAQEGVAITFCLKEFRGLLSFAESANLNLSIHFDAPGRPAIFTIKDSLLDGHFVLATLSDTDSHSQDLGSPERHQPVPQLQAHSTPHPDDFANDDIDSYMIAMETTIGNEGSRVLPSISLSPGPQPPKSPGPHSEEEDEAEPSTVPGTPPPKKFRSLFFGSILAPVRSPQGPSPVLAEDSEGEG
UniProt Q9NP72: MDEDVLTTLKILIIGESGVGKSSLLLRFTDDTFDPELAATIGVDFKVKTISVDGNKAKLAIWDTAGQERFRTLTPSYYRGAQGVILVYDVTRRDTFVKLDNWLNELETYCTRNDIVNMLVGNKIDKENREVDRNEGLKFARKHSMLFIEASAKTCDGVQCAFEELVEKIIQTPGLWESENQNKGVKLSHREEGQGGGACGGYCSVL
UniProt P11234: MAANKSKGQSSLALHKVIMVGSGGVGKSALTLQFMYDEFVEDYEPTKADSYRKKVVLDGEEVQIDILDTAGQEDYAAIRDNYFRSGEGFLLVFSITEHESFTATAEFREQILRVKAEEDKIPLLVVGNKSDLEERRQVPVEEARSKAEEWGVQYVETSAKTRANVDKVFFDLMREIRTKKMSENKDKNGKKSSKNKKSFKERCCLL
UniProt Q9H2T7: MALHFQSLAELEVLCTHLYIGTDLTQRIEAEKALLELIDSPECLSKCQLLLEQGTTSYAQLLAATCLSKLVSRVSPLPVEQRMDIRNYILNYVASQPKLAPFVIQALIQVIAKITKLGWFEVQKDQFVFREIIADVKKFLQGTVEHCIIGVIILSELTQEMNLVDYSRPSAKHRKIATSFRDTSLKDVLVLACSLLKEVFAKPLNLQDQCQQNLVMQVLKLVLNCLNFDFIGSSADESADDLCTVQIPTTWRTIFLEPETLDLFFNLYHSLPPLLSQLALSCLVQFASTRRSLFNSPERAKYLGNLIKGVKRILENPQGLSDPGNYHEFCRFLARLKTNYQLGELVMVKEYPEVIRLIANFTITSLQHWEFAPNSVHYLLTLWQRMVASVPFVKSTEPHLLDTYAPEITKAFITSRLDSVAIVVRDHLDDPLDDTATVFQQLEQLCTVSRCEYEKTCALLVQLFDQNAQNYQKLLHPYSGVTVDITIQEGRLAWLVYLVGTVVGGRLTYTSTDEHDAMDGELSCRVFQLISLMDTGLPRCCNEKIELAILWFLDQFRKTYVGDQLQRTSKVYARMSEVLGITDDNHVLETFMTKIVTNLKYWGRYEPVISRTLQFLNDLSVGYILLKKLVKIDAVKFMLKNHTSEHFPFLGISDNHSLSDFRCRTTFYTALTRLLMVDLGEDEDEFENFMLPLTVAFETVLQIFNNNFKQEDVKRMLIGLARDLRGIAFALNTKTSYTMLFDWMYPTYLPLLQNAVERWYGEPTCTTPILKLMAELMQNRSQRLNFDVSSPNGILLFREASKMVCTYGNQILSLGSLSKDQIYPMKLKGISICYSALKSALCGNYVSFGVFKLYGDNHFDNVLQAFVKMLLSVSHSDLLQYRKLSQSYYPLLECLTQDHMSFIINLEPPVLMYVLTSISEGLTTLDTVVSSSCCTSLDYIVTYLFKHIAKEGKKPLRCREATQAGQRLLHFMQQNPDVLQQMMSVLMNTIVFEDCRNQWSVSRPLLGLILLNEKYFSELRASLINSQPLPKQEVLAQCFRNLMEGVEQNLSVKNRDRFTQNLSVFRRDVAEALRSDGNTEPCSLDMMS
UniProt O60671: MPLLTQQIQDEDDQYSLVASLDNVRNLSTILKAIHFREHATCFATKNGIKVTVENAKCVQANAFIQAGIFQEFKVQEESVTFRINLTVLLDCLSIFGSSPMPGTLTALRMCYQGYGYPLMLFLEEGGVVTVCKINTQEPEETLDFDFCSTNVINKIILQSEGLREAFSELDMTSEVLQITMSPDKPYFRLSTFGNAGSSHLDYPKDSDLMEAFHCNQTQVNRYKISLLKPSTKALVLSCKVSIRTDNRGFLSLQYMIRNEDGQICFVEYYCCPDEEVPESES
UniProt Q7Z6E9: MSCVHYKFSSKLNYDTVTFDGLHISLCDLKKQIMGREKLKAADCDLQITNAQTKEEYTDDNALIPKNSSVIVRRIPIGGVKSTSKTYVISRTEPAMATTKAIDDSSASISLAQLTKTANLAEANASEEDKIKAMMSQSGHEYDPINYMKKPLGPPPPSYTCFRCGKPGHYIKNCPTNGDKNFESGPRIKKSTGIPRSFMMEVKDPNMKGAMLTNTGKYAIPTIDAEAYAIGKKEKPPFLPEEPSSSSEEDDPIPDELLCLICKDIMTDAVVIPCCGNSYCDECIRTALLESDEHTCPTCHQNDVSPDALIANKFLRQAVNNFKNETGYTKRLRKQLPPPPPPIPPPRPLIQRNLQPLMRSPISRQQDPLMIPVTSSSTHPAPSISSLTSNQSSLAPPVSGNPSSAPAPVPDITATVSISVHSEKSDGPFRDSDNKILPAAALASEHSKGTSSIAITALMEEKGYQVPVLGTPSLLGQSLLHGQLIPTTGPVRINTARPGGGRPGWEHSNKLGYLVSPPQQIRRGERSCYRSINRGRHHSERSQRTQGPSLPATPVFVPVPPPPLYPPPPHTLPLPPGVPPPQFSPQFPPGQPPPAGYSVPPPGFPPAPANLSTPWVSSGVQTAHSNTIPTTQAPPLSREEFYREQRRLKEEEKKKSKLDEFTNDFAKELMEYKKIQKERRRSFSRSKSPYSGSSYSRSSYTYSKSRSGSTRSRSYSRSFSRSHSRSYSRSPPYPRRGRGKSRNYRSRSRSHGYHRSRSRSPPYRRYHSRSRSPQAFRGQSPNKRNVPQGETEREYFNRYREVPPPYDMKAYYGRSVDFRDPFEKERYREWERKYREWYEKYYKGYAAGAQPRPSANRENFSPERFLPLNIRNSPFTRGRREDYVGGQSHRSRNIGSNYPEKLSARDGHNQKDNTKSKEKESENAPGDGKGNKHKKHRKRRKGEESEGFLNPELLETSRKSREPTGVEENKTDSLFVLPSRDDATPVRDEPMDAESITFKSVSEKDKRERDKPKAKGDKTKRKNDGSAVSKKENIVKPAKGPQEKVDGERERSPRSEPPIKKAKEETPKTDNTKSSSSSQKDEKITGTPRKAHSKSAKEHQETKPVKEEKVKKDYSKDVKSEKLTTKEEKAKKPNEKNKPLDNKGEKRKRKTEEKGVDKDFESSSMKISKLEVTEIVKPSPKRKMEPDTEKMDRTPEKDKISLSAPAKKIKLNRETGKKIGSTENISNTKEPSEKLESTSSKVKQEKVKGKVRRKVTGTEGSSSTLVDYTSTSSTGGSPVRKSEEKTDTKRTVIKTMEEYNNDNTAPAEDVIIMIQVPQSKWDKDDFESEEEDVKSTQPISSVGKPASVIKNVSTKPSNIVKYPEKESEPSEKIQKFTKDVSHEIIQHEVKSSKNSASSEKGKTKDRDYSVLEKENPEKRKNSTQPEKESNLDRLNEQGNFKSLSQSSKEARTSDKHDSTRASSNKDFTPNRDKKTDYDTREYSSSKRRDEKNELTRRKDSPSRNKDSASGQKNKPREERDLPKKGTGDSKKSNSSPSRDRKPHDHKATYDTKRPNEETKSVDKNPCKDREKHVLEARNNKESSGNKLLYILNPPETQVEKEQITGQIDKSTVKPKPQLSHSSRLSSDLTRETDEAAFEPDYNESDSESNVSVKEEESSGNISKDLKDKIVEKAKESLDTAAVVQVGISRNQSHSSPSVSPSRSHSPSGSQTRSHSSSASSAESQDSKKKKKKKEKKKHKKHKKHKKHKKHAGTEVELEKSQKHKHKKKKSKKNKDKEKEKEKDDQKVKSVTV
UniProt P61225: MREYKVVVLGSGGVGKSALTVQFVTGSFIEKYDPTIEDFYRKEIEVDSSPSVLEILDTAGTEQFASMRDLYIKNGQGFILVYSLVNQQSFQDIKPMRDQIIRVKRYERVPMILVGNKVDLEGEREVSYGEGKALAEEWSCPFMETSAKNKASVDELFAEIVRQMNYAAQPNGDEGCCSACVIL
UniProt Q06609, whole entry, looked up: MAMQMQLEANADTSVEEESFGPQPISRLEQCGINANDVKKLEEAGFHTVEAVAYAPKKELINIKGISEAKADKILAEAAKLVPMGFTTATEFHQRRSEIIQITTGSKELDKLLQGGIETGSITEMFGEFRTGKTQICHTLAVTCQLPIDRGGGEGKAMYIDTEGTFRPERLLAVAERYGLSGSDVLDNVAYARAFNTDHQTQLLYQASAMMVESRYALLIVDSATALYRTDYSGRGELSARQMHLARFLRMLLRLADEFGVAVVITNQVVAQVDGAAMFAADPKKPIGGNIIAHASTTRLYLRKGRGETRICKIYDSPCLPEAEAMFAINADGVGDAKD
UniProt P61006: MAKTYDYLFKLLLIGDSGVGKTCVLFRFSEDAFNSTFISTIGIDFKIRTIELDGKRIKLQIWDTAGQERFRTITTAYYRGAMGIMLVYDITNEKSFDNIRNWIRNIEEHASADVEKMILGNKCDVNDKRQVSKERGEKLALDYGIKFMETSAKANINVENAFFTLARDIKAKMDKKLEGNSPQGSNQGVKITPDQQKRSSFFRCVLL

Tests used:
Test in all cases: log2 fold change, soluble protein after heating vs DMSO (PISA); higher = thermal stabilisation; K562 cells, 10 uM, 30 min; active = over 0.2 and 3.5 SD of the protein, either way, in both replicates (recomputed)
[1] = compound: COC1=CC=C(C=C1)CN2C=CC3=C2C=C(C=C3)C(=O)NO
Method in brief: (§1)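 Soluble protein was quantified by TMTpro 16plex LC-MS/MS after channel sums were equalised. It was obtained as the supernatant after 21,000xg for 90 min from pooled aliquots of K562 cells (2×10^6 cells/mL, 10 μM compound, 30 min) heated for 3 min across 48°C-58°C and extracted in PBS with 0.5% NP-40 at 4°C. Thermal stability values are relative to control samples and come from duplicates. They are given as log2 fold changes.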

filanesib = compound: CON(C)C(=O)N1N=C(c2cc(F)ccc2F)S[C@@]1(CCCN)c1ccccc1 [filanesib]
Method in brief: as §1

zotarolimus = compound: CO[C@H]1C[C@@H]2CC[C@@H](C)[C@@](O)(O2)C(=O)C(=O)N2CCCC[C@H]2C(=O)O[C@H]([C@H](C)C[C@@H]2CC[C@H](n3cnnn3)[C@H](OC)C2)CC(=O)[C@H](C)/C=C(\C)[C@@H](O)[C@@H](OC)C(=O)[C@H](C)C[C@H](C)/C=C/C=C/C=C/1C [zotarolimus]
Method in brief: as §1

idasanutlin = compound: COc1cc(C(=O)O)ccc1NC(=O)[C@@H]1N[C@@H](CC(C)(C)C)[C@](C#N)(c2ccc(Cl)cc2F)[C@H]1c1cccc(Cl)c1F [idasanutlin]
Method in brief: as §1

alisertib = compound: COc1cc(Nc2ncc3c(n2)-c2ccc(Cl)cc2C(c2c(F)cccc2OC)=NC3)ccc1C(=O)O [alisertib]
Method in brief: as §1

[2] = compound: COc1cc2nc(-c3cc(F)ccc3O)nc(N[C@@H]3CNC[C@H]3C(C)(C)O)c2cc1OC
Method in brief: as §1

gefitinib = compound: COc1cc2ncnc(Nc3ccc(F)c(Cl)c3)c2cc1OCCCN1CCOCC1 [gefitinib]
Method in brief: as §1

[3] = compound: COc1cccc2cc(-c3nc([C@H]4CC[C@H](C(=O)O)CC4)n4ncnc(N)c34)[nH]c12
Method in brief: as §1

lapatinib = compound: CS(=O)(=O)CCNCc1ccc(-c2ccc3ncnc(Nc4ccc(OCc5cccc(F)c5)c(Cl)c4)c3c2)o1 [lapatinib]
Method in brief: as §1

pictilisib = compound: CS(=O)(=O)N1CCN(Cc2cc3nc(-c4cccc5[nH]ncc45)nc(N4CCOCC4)c3s2)CC1 [pictilisib]
Method in brief: as §1

Measured: log2 fold change

RAN (UniProt P62826)
inactive: [1] -0.068 | filanesib -0.011 | zotarolimus -0.024 | idasanutlin 0.011 | alisertib -0.013 | [2] 0.02 | gefitinib -0.011 | [3] 0.045 | lapatinib -0.086 | pictilisib 0.007

RAVER1 (UniProt E9PAU2)
inactive: [1] 0.032 | filanesib -0.244 | zotarolimus 0.258 | idasanutlin 0.024 | alisertib 0.372 | [2] -0.898 | gefitinib 0.082 | [3] -0.099 | lapatinib 0.049 | pictilisib -0.002

RAB10 (UniProt P61026)
inactive: [1] -0.049 | filanesib -0.064 | zotarolimus 0.003 | idasanutlin -0.024 | alisertib -0.015 | [2] 0.055 | gefitinib 0.01 | [3] 0.036 | lapatinib -0.01 | pictilisib 0.005

RBM12 (UniProt Q9NTZ6)
inactive: [1] 0.112 | filanesib -0.033 | zotarolimus 0.021 | idasanutlin -0.039 | alisertib 0.023 | [2] -0.014 | gefitinib 0.032 | [3] 0.023 | lapatinib -0.012 | pictilisib -0.019

RAB7A (UniProt P51149)
inactive: [1] -0.017 | filanesib -0.055 | zotarolimus -0.055 | idasanutlin -0.009 | alisertib -0.047 | [2] 0.015 | gefitinib 0.014 | [3] 0.038 | lapatinib -0.005 | pictilisib -0.001

RBIS (UniProt Q8N0T1)
inactive: [1] -0.069 | filanesib 0.077 | zotarolimus -0.075 | idasanutlin 0.061 | alisertib -0.053 | [2] -0.018 | gefitinib -0.056 | [3] -0.012 | lapatinib 0.012 | pictilisib -0.04

RANGAP1 (UniProt P46060)
inactive: [1] 0.028 | filanesib -0.012 | zotarolimus 0.035 | idasanutlin -0.052 | alisertib -0.071 | [2] 0.093 | gefitinib -0.017 | [3] -0.045 | lapatinib 0 | pictilisib -0.019

RAP2A (UniProt P10114)
inactive: [1] -0.064 | filanesib 0.007 | zotarolimus -0.052 | idasanutlin 0.007 | alisertib 0.046 | [2] 0.041 | gefitinib 0.028 | [3] 0.047 | lapatinib -0.014 | pictilisib -0.033

RAD9A (UniProt Q99638)
inactive: [1] -0.05 | filanesib -0.053 | zotarolimus -0.036 | idasanutlin -0.032 | alisertib -0.08 | [2] -0.027 | gefitinib -0.034 | [3] 0.017 | lapatinib 0.057 | pictilisib 0.405

RBM10 isoform 5 (UniProt P98175)
inactive: [1] -0.104 | filanesib 0.21 | zotarolimus -0.002 | idasanutlin 0.16 | alisertib 0.263 | [2] 0.048 | gefitinib 0.034 | [3] 0.004 | lapatinib 0.042 | pictilisib 0.126

RAB18 (UniProt Q9NP72)
inactive: [1] -0.003 | filanesib -0.016 | zotarolimus -0.017 | idasanutlin -0.016 | alisertib -0.001 | [2] -0.014 | gefitinib 0.018 | [3] 0.029 | lapatinib 0.002 | pictilisib -0.084

RALB isoform 2 (UniProt P11234)
inactive: [1] 0.023 | filanesib 0.011 | zotarolimus -0.034 | idasanutlin -0.008 | alisertib -0.075 | [2] 0.008 | gefitinib 0.05 | [3] 0.007 | lapatinib -0.008 | pictilisib 0.068

RAB8B (UniProt Q92930)
inactive: [1] 0.258 | filanesib -0.076 | zotarolimus 0.045 | idasanutlin -0.017 | alisertib -0.035 | [2] -0.064 | gefitinib 0.021 | [3] -0.076 | lapatinib 0.023 | pictilisib -0.096

RANBP17 (UniProt Q9H2T7)
inactive: [1] 0.052 | filanesib -0.022 | zotarolimus 0.139 | idasanutlin -0.307 | alisertib -0.412 | [2] 0.288 | gefitinib -0.002 | [3] 0.038 | lapatinib -0.063 | pictilisib -0.097

RAD1 (UniProt O60671)
inactive: [1] 0.018 | filanesib -0.055 | zotarolimus -0.012 | idasanutlin -0.028 | alisertib -0.054 | [2] -0.003 | gefitinib 0.04 | [3] 0.006 | lapatinib 0.026 | pictilisib -0.083

RAB3IP (UniProt Q96QF0)
inactive: [1] 0 | filanesib 0.021 | zotarolimus 0.128 | idasanutlin 0.073 | alisertib -0.041 | [2] -0.145 | gefitinib 0.033 | [3] -0.131 | lapatinib 0.069 | pictilisib 0.067

RAB9A (UniProt P51151)
inactive: [1] 0.022 | filanesib -0.074 | zotarolimus 0.024 | idasanutlin -0.026 | alisertib -0.021 | [2] 0.008 | gefitinib 0.015 | [3] 0.067 | lapatinib -0.026 | pictilisib -0.011

RAB31 (UniProt Q13636)
inactive: [1] 0 | filanesib -0.054 | zotarolimus 0.006 | idasanutlin -0.023 | alisertib -0.025 | [2] 0.031 | gefitinib 0.006 | [3] -0.005 | lapatinib 0.008 | pictilisib 0.055

RBM26 isoform 2 (UniProt Q5T8P6)
inactive: [1] 0.086 | filanesib -0.071 | zotarolimus 0.03 | idasanutlin -0.025 | alisertib 0.093 | [2] -0.045 | gefitinib 0.064 | [3] 0.009 | lapatinib 0.034 | pictilisib 0.059

RAB5IF isoform 5 (UniProt Q9BUV8)
active: [1] 0.429
inactive: filanesib -0.243 | zotarolimus -0.074 | idasanutlin -0.015 | alisertib -0.081 | [2] -0.021 | gefitinib 0.018 | [3] 0.002 | lapatinib 0.006 | pictilisib 0.006

RAB27A (UniProt P51159)
inactive: [1] -0.065 | filanesib -0.054 | zotarolimus 0.017 | idasanutlin -0.073 | alisertib -0.111 | [2] 0.017 | gefitinib 0.026 | [3] 0.069 | lapatinib 0.009 | pictilisib 0.023

RBBP6 (UniProt Q7Z6E9)
inactive: [1] 0.101 | zotarolimus -0.052 | idasanutlin 0.089 | alisertib 0.044 | [2] -0.099 | gefitinib -0.02 | [3] 0.146 | lapatinib 0.101 | pictilisib 0.016
active: filanesib 0.468

RAP2B (UniProt P61225)
inactive: [1] 0.049 | filanesib -0.055 | zotarolimus -0.026 | idasanutlin -0.044 | alisertib -0.036 | [2] 0.1 | gefitinib 0.059 | [3] 0.042 | lapatinib 0.062 | pictilisib 0.059

RAD51 (UniProt Q06609)
inactive: [1] -0.057 | filanesib 0.003 | zotarolimus -0.034 | idasanutlin -0.072 | alisertib 0.041 | [2] -0.022 | gefitinib -0.07 | [3] 0.012 | lapatinib -0.024 | pictilisib -0.02

RAB2B (UniProt Q8WUD1)
inactive: [1] 0.107 | filanesib -0.094 | zotarolimus 0.005 | idasanutlin -0.021 | alisertib -0.006 | [2] -0.049 | gefitinib 0.004 | [3] 0.024 | lapatinib 0.026 | pictilisib -0.086

Two entries drawn at random from those above, as already listed:
RAB2B (UniProt Q8WUD1)
inactive: [1] 0.107 | filanesib -0.094 | zotarolimus 0.005 | idasanutlin -0.021 | alisertib -0.006 | [2] -0.049 | gefitinib 0.004 | [3] 0.024 | lapatinib 0.026 | pictilisib -0.086

RAB27A (UniProt P51159)
inactive: [1] -0.065 | filanesib -0.054 | zotarolimus 0.017 | idasanutlin -0.073 | alisertib -0.111 | [2] 0.017 | gefitinib 0.026 | [3] 0.069 | lapatinib 0.009 | pictilisib 0.023

Later entries.

RAB8A isoform 2 (UniProt P61006)
inactive: [1] -0.1 | filanesib -0.049 | zotarolimus -0.055 | idasanutlin -0.071 | alisertib -0.023 | [2] 0.014 | gefitinib 0.019 | [3] 0.043 | lapatinib 0.012 | pictilisib 0.049

RAB21 (UniProt Q9UL25)
inactive: [1] -0.052 | filanesib -0.045 | zotarolimus 0.014 | idasanutlin -0.042 | alisertib -0.051 | [2] 0.031 | gefitinib -0.005 | [3] 0.066 | lapatinib -0.016 | pictilisib 0.06

RAC3 (UniProt P60763)
inactive: [1] 0.025 | filanesib 0.031 | zotarolimus 0.125 | idasanutlin 0.017 | alisertib -0.038 | [2] -0.067 | gefitinib 0.017 | [3] 0.026 | lapatinib 0.061 | pictilisib 0.071
